From article PMC8206348
No constants are given. Whether binding was seen depends on the method and setting. For some assays here: In cells and extracts the contact can be indirect. Some results given as binding are weak or reduced against the parent protein; the word gives no strength. For some assays here: Where a sequence is shown, tags or fusion partners need not be part of it.

The chains behind the UniProt entries cited, without tags or fusion partners.
UniProt Q99459: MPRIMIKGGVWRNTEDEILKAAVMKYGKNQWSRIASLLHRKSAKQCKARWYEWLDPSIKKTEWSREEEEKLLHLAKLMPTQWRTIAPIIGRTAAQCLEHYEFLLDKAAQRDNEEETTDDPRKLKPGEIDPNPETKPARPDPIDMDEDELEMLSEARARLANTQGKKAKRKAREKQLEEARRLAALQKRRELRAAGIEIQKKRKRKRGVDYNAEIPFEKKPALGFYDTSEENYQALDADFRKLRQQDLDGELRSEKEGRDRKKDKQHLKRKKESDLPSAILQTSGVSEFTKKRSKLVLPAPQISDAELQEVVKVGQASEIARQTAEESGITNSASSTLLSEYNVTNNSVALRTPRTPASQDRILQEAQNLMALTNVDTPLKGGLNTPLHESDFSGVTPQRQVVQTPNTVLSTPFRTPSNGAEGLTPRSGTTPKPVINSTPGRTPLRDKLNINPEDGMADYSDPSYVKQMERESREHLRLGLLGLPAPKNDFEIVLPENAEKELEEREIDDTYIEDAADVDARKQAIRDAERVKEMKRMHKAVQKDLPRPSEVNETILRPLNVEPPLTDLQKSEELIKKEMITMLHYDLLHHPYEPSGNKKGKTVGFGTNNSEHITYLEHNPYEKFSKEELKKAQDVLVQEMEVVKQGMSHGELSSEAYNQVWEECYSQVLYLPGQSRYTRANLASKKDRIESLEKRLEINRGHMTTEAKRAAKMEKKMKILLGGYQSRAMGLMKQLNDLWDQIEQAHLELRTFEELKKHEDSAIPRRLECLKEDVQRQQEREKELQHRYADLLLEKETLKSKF
UniProt O75643: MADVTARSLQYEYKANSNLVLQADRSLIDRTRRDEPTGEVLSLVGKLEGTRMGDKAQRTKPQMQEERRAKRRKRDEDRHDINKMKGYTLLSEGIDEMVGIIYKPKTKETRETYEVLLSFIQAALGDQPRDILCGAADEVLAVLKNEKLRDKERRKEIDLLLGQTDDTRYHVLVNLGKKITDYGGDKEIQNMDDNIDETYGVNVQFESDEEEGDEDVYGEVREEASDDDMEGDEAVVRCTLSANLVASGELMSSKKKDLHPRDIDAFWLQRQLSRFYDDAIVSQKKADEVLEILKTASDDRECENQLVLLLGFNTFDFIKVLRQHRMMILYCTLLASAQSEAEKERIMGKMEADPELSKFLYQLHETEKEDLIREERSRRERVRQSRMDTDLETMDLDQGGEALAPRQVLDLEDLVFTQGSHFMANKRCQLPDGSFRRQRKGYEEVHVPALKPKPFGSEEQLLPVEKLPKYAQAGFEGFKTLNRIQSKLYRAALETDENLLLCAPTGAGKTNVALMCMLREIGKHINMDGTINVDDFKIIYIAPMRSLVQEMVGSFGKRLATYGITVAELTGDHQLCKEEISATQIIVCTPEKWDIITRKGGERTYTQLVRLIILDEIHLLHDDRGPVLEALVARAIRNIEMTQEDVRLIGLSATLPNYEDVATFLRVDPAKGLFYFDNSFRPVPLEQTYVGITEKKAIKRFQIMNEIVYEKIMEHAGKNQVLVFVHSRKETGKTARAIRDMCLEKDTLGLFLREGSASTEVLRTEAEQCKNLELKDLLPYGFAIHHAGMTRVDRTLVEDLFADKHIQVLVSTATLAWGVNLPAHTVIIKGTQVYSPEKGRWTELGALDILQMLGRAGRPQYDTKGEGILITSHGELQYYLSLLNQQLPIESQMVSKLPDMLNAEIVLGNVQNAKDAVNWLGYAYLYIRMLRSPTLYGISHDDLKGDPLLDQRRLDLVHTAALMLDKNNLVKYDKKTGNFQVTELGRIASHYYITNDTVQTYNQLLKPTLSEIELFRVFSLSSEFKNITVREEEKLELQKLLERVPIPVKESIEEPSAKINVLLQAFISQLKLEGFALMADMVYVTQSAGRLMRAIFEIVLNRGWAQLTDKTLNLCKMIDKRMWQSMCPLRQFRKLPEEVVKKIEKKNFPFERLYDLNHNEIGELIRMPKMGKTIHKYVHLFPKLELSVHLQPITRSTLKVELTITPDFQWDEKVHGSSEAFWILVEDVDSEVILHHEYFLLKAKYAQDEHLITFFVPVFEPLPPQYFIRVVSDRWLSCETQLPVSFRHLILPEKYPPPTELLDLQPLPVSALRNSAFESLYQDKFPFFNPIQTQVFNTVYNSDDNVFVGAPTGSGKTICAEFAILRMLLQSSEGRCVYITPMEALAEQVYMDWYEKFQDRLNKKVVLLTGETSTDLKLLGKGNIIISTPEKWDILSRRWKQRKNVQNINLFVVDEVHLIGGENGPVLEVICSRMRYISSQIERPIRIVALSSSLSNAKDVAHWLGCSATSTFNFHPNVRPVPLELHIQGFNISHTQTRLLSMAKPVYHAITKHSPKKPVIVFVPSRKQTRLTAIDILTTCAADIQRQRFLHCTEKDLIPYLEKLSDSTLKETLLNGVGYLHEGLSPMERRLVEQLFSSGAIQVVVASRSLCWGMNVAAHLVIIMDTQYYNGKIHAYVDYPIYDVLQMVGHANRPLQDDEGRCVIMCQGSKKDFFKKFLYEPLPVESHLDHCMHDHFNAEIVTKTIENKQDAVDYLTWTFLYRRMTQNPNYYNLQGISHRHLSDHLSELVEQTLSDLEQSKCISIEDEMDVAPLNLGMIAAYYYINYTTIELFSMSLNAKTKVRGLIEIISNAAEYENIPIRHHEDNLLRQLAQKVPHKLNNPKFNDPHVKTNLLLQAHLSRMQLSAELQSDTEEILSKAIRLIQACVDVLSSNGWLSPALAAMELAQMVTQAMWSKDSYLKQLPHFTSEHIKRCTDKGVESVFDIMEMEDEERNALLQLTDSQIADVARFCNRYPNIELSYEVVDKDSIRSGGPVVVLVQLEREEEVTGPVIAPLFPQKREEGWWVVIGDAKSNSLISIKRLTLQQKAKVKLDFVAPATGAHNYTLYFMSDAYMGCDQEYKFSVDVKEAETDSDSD

Key:
TSSC4-FLAG (human) = TSSC4-FLAG (human) (UniProt Q9Y5U2); experiment: co-IP; anti-GFP or anti-FLAG antibodies pre-bound to agarose beads, overnight at 4 °C; lysates of transfected HeLa cells in NET2 buffer (50 mM Tris-HCl pH 7.4, 150 mM NaCl, 0.05% Nonidet P-40); western blot; also from RNase A treated lysates (Fig. 1d)
[1] = biological target: T1, TSSC4 Δ151–200-GFP (human) (UniProt Q9Y5U2); experiment: as above
T1 sequence: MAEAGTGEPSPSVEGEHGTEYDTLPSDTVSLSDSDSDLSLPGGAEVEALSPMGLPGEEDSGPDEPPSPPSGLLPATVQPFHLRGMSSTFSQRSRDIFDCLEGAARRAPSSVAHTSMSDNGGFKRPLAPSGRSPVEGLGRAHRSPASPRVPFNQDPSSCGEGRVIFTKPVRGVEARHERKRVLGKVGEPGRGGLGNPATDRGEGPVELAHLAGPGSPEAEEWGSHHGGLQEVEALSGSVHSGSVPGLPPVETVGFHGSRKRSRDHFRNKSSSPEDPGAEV

[2] = biological target: T2, TSSC4 Δ201–250-GFP (human) (UniProt Q9Y5U2); experiment: as above
T2 sequence: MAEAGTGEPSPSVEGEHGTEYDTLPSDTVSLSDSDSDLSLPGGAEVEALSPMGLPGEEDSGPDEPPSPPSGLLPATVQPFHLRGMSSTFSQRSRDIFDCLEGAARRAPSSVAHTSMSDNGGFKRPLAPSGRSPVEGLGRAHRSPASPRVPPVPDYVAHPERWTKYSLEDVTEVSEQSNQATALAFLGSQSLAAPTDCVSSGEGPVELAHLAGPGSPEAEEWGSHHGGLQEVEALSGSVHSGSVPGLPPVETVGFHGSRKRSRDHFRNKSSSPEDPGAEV

TSSC4 ΔHom4-GFP (human) = biological target: T3, TSSC4 ΔHom4-GFP (human) (UniProt Q9Y5U2); experiment: as above
T3 sequence: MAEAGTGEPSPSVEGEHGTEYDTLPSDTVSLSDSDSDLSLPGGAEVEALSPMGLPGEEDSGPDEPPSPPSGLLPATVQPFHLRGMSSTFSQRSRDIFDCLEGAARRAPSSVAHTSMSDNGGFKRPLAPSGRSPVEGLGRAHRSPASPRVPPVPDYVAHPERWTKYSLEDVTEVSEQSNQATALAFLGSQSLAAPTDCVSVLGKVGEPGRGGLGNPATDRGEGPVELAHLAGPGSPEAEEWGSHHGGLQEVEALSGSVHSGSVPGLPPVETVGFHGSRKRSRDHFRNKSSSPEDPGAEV

TSSC4-GFP (human) = TSSC4-GFP (human) (UniProt Q9Y5U2); experiment: as above
TSSC4-DDX6-dsRed (human) = TSSC4-DDX6-dsRed (human) (UniProt Q9Y5U2); experiment: P-body tethering assay; TSSC4-DDX6-dsRed targeted to cytoplasmic P-bodies in HeLa cells; co-recruitment of GFP- or FLAG-tagged proteins seen by fluorescence microscopy, 50 P-bodies quantified for each condition
[3] = biological target: TSSC4 Hom4-2_Ala-GFP (human) (UniProt Q9Y5U2); experiment: co-IP; anti-GFP or anti-FLAG antibodies pre-bound to agarose beads, overnight at 4 °C; lysates of transfected HeLa cells in NET2 buffer (50 mM Tris-HCl pH 7.4, 150 mM NaCl, 0.05% Nonidet P-40); western blot; also from RNase A treated lysates (Fig. 1d)
[4] = biological target: T4, TSSC4 Δ51–100-GFP (human) (UniProt Q9Y5U2); experiment: as above
T4 sequence: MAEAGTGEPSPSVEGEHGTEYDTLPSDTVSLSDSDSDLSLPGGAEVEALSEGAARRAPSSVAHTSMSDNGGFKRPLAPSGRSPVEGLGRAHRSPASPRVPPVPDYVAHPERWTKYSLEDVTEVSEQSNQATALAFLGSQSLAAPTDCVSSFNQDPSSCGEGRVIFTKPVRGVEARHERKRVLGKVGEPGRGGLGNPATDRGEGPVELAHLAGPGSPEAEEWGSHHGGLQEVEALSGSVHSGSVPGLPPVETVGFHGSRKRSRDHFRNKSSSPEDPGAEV

TSSC4 ΔHom2-GFP (human) = biological target: T5, TSSC4 ΔHom2-GFP (human) (UniProt Q9Y5U2); experiment: as above
T5 sequence: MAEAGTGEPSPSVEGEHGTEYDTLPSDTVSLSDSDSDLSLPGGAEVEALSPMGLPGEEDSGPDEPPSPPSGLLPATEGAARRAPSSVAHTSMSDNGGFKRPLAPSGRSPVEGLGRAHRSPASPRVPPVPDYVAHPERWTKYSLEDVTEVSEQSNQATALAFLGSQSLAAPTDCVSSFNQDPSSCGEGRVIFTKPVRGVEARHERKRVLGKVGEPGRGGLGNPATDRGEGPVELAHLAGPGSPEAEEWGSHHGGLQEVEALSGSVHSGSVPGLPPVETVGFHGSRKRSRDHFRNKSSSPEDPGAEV

Row | binding (TSSC4-FLAG (human)) | binding [1] | binding [2] | binding (TSSC4 ΔHom4-GFP (human)) | binding (TSSC4-GFP (human)) | binding (TSSC4-DDX6-dsRed (human)) | binding [3] | binding [4] | binding (TSSC4 ΔHom2-GFP (human)) | Substance
1 | no binding | – | – | – | – | – | – | – | – | TSSC4-FLAG (from UniProt Q9Y5U2 1-329)
2 | binds | binds | binds weakly | binds weakly | binds | – | – | – | – | CDC5L (from UniProt Q99459 1-802)
3 | – | – | – | – | – | binds | – | – | – | SNRNP200-GFP (from UniProt O75643 1-2136)
4 | – | binds | binds | binds | binds | – | binds | binds | binds | SNRNP200 (from UniProt O75643 1-2136)
